{
  "sequences": {"note": "The chains behind the UniProt entries cited, without tags or fusion partners.", "UniProt P47898, whole entry, looked up": "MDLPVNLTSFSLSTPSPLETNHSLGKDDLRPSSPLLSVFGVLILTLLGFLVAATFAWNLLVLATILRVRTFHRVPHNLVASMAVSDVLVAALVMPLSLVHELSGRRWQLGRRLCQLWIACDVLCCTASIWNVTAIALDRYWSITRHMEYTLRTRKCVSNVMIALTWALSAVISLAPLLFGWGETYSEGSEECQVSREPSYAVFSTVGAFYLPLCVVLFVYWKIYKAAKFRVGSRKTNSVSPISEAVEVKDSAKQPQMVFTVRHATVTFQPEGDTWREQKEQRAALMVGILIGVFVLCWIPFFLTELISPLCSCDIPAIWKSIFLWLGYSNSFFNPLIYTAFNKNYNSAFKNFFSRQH"},
  "source": "PubChem BioAssay (EPA / NIEHS)",
  "note": "The shares of active, inactive and inconclusive entries below differ from those in the screen. Where the call is inconclusive, the potency comes from a doubtful curve fit. Calls of active or inactive are those of the source. How the source made its calls: active means hit-call score of the fitted dose curve at least 0.9, where 1 is the maximum; inconclusive means response in the unintended direction; inactive means score below 0.9.",
  "data": [
    {"target": "human Serotonin, 5-Hydroxytryptamine Receptor 5A (5HT5A), HTR5A (gene 3361) (UniProt P47898)", "experiment": "NVS_GPCR_h5HT5A: NovaScreen (NVS) G Protein-Coupled Receptor Assay for human Serotonin, 5-Hydroxytryptamine Receptor 5A (5HT5A) (AID 2283251)", "summary_of_the_method": "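Cell-free radioligand displacement binding on HEK293-derived membrane protein, 1 h incubation, filter-based scintillation counting. Primary screen in duplicate at 25 uM, actives followed in concentration series; loss of signal fitted versus DMSO.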", "values": [
      {"smiles": "Cc1cc(Cl)ccc1OCC(=O)O", "outcome": "inactive"},
      {"smiles": "CS(=O)(=O)c1ccc(C(=O)C2C(=O)CCCC2=O)c([N+](=O)[O-])c1", "AC50": "inconclusive: 25 µM"},
      {"smiles": "O=C(O)C1C(C(=O)O)C2(Cl)C(Cl)=C(Cl)C1(Cl)C2(Cl)Cl", "note": "(stereo not drawn)", "AC50": "inconclusive: 1.92 µM"},
      {"smiles": "CC(C)N1C(=O)N(c2ccccc2)CSC1=NC(C)(C)C", "outcome": "inactive"},
      {"smiles": "C=C(C)C(=O)[O][Sn]([CH2]CCC)([CH2]CCC)[CH2]CCC", "AC50": "active: 2.16 µM"},
      {"smiles": "CO/C=C(/C(=O)OC)c1ccccc1Oc1cc(Oc2ccccc2C#N)ncn1", "AC50": "inconclusive: 26.4 µM"},
      {"smiles": "CC(C)N1C(=O)c2ccccc2NS1(=O)=O", "AC50": "inconclusive: 45.9 µM"},
      {"smiles": "CSC(C)(C)C=NO", "AC50": "inconclusive: 1.85 µM"}
    ]}
  ]
}
